Measurements reported in publication PMC11057417.
No constants are given. Whether binding was seen depends on the method and setting. In cells and extracts the contact can be indirect. Some binding calls cover weakened binding; strength is not graded here. One block for each molecule: values may come before it.

Protein sequences, listed by entry. Tags and fused reporters are not part of them.
UniProt P11940: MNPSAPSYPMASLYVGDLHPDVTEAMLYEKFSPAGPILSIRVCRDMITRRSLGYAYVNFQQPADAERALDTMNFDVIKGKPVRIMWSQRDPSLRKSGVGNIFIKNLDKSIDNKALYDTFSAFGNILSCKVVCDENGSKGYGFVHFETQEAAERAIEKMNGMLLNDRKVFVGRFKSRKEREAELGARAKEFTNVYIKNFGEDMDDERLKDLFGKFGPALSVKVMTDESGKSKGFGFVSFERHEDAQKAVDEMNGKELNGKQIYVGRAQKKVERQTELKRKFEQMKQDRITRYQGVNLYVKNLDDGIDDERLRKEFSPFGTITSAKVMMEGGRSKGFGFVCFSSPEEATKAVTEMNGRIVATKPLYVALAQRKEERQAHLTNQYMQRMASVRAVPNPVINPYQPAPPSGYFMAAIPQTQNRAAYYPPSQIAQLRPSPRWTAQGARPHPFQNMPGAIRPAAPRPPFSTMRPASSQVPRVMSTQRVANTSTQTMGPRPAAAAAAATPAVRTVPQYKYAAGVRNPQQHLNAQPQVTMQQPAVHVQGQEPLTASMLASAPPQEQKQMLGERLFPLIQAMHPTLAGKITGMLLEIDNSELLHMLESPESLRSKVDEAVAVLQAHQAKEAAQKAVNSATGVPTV

Legend:
[1] = target: T1, YTH m6A RNA-binding protein 1 (YTHDF1) (human (endogenous in NOZ)) (UniProt Q9BYJ9); assay: co-IP; reciprocal co-IP from NOZ cell lysate; anti-YTHDF1, anti-PABPC1 or IgG isotype control on Protein G Dynabeads; IP Lysis buffer (10 mM Tris-HCl, 150 mM NaCl, 0.5% Igepal CA-630), 4°C for 2 h, NT2 wash buffer; Western blotting of 10% Input, IgG and IP
T1 sequence: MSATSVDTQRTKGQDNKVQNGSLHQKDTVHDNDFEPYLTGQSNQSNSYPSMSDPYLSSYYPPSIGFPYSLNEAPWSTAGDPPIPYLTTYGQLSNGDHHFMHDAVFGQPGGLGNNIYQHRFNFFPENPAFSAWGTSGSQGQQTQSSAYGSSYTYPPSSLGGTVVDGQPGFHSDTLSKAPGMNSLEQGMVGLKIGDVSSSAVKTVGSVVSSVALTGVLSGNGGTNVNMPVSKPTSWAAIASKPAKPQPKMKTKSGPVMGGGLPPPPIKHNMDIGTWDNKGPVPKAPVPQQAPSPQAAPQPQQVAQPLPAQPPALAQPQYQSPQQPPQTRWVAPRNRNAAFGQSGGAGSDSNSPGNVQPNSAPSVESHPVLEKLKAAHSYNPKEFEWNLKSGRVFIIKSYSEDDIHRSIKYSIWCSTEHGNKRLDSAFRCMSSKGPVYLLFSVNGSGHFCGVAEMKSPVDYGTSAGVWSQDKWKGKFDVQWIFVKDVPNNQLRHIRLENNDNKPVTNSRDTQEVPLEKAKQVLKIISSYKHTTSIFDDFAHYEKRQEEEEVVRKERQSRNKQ

[2] = target: PABPC1 (human (endogenous in NOZ)) (UniProt P11940); assay: as above

binding [1]: binds
Molecule: PABPC1 (from UniProt P11940 1-636)

binding [2]: binds
B1: YTH m6A RNA-binding protein 1 (YTHDF1) (protein, UniProt Q9BYJ9 1-559)
chain: T1 sequence
